No constants are given. Whether binding was seen depends on the method and setting. In cells and extracts the contact can be indirect. Some binding calls cover weakened binding; strength is not graded here.
Target: telomerase reverse transcriptase (human (endogenous in PLC/PRF5)) (UniProt O14746)
Experiment: co-IP; soluble protein samples of PLC/PRF5 cells, pre-incubated with protein G/A-agarose at 4°C overnight, then incubated with protein G/A-agarose pre-coupled to primary antibodies for at least 3 h; washed, boiled, western blot

Chains of the proteins cited; added tags and fusions are not shown.
UniProt O14746: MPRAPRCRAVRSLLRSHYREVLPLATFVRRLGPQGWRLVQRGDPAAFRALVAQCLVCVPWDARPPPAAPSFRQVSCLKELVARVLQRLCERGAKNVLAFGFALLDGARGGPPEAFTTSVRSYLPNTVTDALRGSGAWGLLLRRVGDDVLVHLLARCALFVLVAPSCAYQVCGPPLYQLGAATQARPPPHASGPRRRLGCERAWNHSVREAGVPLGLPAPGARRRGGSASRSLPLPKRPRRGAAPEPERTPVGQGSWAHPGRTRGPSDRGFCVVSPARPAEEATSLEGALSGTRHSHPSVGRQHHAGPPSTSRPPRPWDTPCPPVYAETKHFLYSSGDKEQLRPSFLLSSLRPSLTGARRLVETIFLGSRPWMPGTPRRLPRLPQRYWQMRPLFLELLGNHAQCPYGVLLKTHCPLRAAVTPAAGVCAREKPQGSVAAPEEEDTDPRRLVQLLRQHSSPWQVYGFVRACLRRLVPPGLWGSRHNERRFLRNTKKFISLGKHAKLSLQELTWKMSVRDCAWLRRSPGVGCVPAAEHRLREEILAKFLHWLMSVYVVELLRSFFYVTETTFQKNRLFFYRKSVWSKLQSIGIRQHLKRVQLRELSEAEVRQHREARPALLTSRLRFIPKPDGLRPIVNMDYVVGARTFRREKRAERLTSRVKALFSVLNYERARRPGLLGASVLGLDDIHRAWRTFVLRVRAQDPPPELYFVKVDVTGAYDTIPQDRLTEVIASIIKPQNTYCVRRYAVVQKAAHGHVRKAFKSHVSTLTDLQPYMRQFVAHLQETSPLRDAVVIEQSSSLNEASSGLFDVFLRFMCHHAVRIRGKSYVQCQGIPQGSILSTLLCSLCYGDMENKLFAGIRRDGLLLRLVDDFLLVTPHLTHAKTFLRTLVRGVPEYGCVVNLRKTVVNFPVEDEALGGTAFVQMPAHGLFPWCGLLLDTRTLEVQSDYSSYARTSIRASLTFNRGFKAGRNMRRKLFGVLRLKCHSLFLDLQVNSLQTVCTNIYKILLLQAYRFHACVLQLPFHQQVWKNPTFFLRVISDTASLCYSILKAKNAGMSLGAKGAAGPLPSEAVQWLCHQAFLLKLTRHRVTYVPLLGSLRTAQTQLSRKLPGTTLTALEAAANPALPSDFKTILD

- binding: binds
B1: NHP2 (protein, UniProt Q9NX24 1-153)
chain: MTKIKADPDGPEAQAEACSGERTYQELLVNQNPIAQPLASRRLTRKLYKCIKKAVKQKQIRRGVKEVQKFVNKGEKGIMVLAGDTLPIEVYCHLPVMCEDRNLPYVYIPSKTDLGAAAGSKRPTCVIMVKPHEEYQEAYDECLEEVQSLPLPL
